From the supplement of paper PMC12823440, “Inhibitors supercharge kinase turnover through native proteolytic circuits” (Nature, 2025)
Where a name gives a salt, the structure may show the parent alone. The list shows a part of the results. The calls rarely recur for the same compound in another form.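 Kinases were expressed as nanoluciferase fusions in K562 cells and luminescence was read every 4 h between 2 and 18 h as percent of control, DMSO set to 100% and a positive control to 0%. A time point counts as decreased when the signal drops significantly (2 sigma). The hit call is the authors' own, does not follow from the count of time points alone, and its rule is not shown.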

Protein sequences, listed by entry. Tags and fused reporters are not part of them. Lines headed by an entry give the natural chain unless they say otherwise; changes in a name come on top.
UniProt O96013: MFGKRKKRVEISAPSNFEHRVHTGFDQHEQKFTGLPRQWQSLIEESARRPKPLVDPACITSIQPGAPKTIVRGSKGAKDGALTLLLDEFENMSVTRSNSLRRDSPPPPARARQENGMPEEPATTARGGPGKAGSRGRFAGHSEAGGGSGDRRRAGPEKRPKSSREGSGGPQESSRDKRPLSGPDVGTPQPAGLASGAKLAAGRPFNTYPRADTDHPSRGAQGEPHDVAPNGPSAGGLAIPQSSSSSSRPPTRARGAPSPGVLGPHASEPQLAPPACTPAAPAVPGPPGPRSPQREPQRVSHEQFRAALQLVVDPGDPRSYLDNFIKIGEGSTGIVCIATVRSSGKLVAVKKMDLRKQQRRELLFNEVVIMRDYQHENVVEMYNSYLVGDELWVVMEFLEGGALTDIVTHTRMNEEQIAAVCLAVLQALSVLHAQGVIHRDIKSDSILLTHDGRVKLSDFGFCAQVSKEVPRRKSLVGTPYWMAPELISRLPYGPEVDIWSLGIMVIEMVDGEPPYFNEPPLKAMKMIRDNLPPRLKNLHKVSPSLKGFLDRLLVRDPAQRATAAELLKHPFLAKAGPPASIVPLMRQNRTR
UniProt P09619, whole entry: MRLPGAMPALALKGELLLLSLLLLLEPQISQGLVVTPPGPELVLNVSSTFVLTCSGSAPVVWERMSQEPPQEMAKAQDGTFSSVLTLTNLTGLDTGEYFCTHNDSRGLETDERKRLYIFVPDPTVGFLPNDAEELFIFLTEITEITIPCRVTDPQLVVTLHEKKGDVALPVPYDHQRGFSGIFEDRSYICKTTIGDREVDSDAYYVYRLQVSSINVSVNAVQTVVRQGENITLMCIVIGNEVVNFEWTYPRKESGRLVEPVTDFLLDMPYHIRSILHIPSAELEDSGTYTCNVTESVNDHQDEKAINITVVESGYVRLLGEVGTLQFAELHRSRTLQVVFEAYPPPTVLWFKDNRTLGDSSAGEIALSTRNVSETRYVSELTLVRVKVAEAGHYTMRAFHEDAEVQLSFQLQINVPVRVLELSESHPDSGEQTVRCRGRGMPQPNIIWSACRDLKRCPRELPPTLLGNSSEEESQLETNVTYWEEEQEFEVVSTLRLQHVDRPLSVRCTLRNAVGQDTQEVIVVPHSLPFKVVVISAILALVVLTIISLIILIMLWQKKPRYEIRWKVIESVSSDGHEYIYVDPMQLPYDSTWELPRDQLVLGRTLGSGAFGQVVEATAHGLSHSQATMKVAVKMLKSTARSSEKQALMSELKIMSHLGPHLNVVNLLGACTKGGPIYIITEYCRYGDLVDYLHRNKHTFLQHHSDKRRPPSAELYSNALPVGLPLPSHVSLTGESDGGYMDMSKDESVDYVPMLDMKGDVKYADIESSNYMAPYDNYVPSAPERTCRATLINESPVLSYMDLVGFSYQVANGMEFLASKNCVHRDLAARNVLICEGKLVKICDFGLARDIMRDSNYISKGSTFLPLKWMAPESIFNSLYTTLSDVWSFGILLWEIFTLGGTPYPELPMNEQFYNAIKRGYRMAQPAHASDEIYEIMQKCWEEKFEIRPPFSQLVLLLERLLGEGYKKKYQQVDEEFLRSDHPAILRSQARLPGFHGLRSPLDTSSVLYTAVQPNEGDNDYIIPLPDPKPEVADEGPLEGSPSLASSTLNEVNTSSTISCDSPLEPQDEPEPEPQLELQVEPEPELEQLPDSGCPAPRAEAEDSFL
UniProt O15530: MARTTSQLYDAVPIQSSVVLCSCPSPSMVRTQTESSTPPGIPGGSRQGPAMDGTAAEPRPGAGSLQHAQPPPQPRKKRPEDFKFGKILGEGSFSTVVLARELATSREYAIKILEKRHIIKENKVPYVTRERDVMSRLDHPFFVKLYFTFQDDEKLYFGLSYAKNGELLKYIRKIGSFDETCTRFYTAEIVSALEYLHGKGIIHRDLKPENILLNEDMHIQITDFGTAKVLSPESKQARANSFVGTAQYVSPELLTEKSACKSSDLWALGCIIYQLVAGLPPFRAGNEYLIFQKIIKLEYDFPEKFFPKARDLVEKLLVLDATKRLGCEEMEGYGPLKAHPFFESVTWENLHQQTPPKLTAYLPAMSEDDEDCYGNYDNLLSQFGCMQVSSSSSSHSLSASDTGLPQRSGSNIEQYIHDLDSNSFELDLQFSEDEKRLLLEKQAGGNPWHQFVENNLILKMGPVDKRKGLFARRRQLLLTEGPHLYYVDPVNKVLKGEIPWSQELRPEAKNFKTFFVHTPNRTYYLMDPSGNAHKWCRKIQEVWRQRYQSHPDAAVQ
UniProt P42356, whole entry, looked up: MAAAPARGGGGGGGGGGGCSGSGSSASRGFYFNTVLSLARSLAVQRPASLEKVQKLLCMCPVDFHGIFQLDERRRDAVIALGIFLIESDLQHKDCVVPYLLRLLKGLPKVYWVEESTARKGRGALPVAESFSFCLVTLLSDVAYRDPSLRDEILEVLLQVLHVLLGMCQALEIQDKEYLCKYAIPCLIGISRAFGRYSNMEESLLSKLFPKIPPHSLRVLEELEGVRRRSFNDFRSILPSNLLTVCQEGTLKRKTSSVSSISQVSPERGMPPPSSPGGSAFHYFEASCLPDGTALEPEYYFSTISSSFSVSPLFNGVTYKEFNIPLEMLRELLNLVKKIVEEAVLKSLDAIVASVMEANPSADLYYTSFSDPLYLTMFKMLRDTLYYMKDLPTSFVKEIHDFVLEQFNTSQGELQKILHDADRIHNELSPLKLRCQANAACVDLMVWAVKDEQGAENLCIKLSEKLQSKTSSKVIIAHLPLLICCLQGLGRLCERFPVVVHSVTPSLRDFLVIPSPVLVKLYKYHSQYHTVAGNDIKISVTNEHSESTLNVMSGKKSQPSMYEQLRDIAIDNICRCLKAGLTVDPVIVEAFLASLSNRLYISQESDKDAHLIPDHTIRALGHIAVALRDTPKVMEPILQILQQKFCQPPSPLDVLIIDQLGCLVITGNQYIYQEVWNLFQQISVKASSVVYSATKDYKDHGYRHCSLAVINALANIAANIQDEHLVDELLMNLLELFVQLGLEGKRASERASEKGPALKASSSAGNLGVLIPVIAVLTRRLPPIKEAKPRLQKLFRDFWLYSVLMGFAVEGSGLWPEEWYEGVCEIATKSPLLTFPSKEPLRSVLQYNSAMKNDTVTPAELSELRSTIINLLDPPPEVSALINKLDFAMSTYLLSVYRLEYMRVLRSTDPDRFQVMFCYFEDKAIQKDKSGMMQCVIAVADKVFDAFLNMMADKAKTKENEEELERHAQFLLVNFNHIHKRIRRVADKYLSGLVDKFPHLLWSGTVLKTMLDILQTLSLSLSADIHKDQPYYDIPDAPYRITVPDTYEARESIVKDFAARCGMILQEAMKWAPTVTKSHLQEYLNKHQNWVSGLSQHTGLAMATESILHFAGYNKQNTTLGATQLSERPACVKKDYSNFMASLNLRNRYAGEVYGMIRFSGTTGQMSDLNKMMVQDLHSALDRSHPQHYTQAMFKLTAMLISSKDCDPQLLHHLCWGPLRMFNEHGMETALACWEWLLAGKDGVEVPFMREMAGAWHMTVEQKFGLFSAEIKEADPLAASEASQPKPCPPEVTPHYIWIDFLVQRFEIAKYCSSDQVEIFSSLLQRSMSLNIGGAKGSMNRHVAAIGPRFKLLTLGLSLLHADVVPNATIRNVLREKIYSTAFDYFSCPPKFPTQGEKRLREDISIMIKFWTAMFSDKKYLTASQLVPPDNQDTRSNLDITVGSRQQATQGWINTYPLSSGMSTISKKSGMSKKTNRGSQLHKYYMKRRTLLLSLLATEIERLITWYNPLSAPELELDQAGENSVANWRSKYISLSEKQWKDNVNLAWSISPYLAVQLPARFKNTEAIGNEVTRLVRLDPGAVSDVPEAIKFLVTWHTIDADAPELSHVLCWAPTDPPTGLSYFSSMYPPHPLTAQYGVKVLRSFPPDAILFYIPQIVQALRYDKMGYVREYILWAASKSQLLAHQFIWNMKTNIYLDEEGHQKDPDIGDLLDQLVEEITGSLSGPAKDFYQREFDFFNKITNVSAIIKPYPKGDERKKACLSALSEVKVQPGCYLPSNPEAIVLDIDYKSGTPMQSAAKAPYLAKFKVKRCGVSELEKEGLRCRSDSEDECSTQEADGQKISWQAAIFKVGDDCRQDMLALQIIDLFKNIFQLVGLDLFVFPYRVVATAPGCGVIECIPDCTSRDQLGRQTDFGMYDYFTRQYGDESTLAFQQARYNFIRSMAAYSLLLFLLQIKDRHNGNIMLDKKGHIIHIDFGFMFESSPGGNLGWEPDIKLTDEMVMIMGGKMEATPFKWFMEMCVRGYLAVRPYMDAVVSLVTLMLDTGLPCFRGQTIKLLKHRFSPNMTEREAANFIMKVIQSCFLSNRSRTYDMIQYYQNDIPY
UniProt Q9UBF8: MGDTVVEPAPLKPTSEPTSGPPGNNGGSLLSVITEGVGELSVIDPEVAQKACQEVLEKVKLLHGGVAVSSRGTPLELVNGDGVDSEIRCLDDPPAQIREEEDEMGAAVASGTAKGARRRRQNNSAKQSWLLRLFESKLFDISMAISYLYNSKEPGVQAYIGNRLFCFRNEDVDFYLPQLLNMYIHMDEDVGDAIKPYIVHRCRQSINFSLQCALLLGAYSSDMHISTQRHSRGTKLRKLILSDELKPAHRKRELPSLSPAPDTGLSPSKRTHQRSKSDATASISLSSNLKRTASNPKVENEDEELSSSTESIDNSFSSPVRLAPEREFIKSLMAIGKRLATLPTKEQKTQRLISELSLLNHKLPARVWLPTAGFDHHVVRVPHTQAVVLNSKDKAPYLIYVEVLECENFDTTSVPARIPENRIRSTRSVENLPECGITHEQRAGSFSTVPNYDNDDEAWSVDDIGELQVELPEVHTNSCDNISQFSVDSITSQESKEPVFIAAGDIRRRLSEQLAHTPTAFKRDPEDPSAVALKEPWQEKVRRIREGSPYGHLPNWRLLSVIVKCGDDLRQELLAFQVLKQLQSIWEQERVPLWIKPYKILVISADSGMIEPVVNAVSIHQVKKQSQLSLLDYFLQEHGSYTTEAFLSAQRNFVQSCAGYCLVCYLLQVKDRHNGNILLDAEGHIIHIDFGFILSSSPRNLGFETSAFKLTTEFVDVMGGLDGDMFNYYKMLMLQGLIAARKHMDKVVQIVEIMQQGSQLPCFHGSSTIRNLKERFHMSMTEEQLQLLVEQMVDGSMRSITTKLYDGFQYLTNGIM
UniProt P53350, whole entry: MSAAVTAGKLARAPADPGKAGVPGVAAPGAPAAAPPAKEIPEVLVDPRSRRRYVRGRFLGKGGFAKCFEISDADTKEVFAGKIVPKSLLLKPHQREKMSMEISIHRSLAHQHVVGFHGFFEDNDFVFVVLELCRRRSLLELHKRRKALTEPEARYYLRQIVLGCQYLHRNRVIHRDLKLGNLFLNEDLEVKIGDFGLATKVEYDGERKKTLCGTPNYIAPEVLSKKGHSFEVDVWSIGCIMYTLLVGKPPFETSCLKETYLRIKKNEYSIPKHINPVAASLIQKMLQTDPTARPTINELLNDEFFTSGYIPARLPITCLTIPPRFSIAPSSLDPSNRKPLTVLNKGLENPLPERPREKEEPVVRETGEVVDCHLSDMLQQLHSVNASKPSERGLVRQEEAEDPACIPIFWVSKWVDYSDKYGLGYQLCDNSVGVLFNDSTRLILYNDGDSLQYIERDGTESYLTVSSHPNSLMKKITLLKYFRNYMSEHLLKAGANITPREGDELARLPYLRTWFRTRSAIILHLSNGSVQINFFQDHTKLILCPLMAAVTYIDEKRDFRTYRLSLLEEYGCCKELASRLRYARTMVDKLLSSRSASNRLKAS
UniProt Q13131: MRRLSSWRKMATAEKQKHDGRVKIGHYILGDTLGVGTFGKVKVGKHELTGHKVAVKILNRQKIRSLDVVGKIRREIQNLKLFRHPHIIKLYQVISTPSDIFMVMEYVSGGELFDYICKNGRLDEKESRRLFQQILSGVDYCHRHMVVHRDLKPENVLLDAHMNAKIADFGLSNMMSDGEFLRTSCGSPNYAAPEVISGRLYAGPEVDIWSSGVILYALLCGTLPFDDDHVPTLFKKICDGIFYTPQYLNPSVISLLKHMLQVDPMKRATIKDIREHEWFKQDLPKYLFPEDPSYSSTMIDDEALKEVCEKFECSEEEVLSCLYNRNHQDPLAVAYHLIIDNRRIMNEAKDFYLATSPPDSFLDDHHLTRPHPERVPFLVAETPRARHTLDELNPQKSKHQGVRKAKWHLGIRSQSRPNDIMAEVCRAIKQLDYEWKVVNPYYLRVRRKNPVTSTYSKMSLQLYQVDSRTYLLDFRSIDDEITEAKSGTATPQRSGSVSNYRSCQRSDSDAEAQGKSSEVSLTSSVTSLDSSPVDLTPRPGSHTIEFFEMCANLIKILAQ

Tests used:
Test in all cases: number of time points (of 5) at which kinase-Nluc abundance scored as decreased, DMSO-normalised (count); higher = more persistent destabilization
Conditions in all cases: K562; 2-18 h
NTRK3 = NTRK3 (UniProt Q16288)
PAK4 = PAK4 (UniProt O96013)
PBK = PBK (UniProt Q96KB5)
PDGFRB = PDGFRB (UniProt P09619)
PDK1 = PDK1 (UniProt Q15118)
PDPK1 = PDPK1 (UniProt O15530)
PIK4CA = PIK4CA (UniProt P42356)
PIK4CB = PIK4CB (UniProt Q9UBF8)
PLK1 = PLK1 (UniProt P53350)
PRKAA1 = PRKAA1 (UniProt Q13131)

Measured: number of time points

O=C(/C=C/c1ccc(O)c(O)c1)c1ccc(O[C@@H]2O[C@H](CO)[C@@H](O)[C@H](O)[C@H]2O)c(O)c1O [Marein] (10 µM)
0: all assays above

O=C(CNC(=O)c1ccc(-c2ccccc2)cc1)NC1CCCc2ccccc21 (stereo not given) [TAO Kinase inhibitor 1] (10 µM)
0: all assays above

COc1ccc([C@H]2c3[nH]c4ccc(Cl)cc4c3CCN2C(=O)Oc2ccc(Cl)cc2)cc1 (2.5 µM)
0: all assays above

Cc1ccc(Nc2cc(-c3cccc(N4C(=O)c5ccccc5C4=O)c3)ncn2)cc1NS(C)(=O)=O (10 µM)
1: PIK4CA
0: all other assays above

Cc1ccc(Oc2nc3cc(-c4ccc5c(ccn5C)c4)c(Cl)cc3[nH]2)cc1C(=O)O (10 µM)
0: all assays above

COc1cc2ncnc(Nc3cccc(Cl)c3)c2cc1OC (10 µM)
0: all assays above

OC[C@H]1O[C@@H](Oc2cc3c(O)cc(O)cc3[o+]c2-c2cc(O)c(O)c(O)c2)[C@H](O)[C@@H](O)[C@@H]1O [Delphinidin 3-glucoside (chloride)] (10 µM)
0: all assays above

Cc1ccc2nc(NC(=O)CSc3nc4c(c(=O)n3-c3ccccc3)SCC4)sc2c1 (2 µM)
0: all assays above

CNc1nc(Nc2cnn(C3CCN(C4COC4)CC3F)c2Cl)ncc1C(F)(F)F (stereo not given) (10 µM)
0: all assays above

O=C(/C=C/c1ccc(O)c(O)c1)OC1CC(OC(=O)/C=C/c2ccc(O)c(O)c2)(C(=O)O)CC(O)C1O (stereo not given) [1,3-Dicaffeoylquinic acid] (10 µM)
0: all assays above

O=C1Nc2nc(-c3c(O)cccc3OCC3CC3)cc([C@@H]3CCCNC3)c2CO1 [Bay 65-1942 (hydrochloride)] (10 µM)
1: PDPK1
0: all other assays above

COc1cc([N+](=O)[O-])ccc1S(=O)(=O)N1C[C@@H](CN2CCN(c3ccccn3)CC2)[C@H](c2cccc(F)c2)C1 (relative stereo) (10 µM)
0: all assays above

COc1ccc(Cn2cc(C(=O)N=Nc3c(O)[nH]c4c(C)cccc34)nn2)cc1 [MARK4 inhibitor 1] (10 µM)
0: all assays above

CCn1c(-c2nonc2N)nc2cnc(Oc3cccc(NC(=O)c4ccc(OCCN5CCOCC5)cc4)c3)cc21 (10 µM)
0: all assays above

CC(C)CC1(O)CCN(C(=O)c2ccc(NS(=O)(=O)c3cccc4nccnc34)cc2)CC1 (10 µM)
0: all assays above

COc1c(NC(=O)C(=O)c2ccc(OCCN3CCOCC3)c3ccccc23)cc(C(C)(C)C)cc1NS(C)(=O)=O (2.5 µM)
0: all assays above

CS(=O)(=O)c1ccc(-c2noc(C(F)(F)F)c2-c2ccccc2)cc1 (10 µM)
0: all assays above

COc1cc(S(C)(=O)=O)ccc1Nc1nc2ccc(-c3ccc(NC(=O)[C@H](C)c4ccc(F)cc4)cc3)cn2n1 [Empesertib] (10 µM)
0: all assays above

CC1=C2C(=O)O[C@@H](c3ccoc3)[C@]2(C)CCC1 [Fraxinellone] (10 µM)
0: all assays above

CCn1c(C(=O)N(C2CC2)C2CC2)cc2c3c(ncn3C)c(Nc3cc(C)n(C)n3)nc21 (10 µM)
0: all assays above

N#Cc1cccc(-c2c[nH]c3ncnc(N4CCOCC4)c23)c1 (10 µM)
0: all assays above

Fc1ccc(-c2nc(-c3ccccc3F)[nH]c2-c2ccncc2)cc1 (2.5 µM)
0: all assays above

CN1CCN(c2ccc(C(=O)Nc3cc(-c4cccc(NS(=O)(=O)c5ccccc5)c4)[nH]n3)cc2)CC1 [BPR1J-097 Hydrochloride] (2.5 µM)
0: all assays above

CC1CCc2nc(N)c(C#N)c(-c3cccnc3)c2C1 (stereo not given) (10 µM)
0: all assays above

CCc1cc(O)c(F)cc1-c1ccc2c(-c3nc4c([nH]3)CN(C3CCN(C)CC3)CC4)n[nH]c2c1 [JAK-IN-5 (hydrochloride)] (2 µM)
4: PDPK1
1: PRKAA1
2: PIK4CB
0: all other assays above

O=C(Nc1cc(Oc2cc(F)c(NC(=O)C3(C(=O)Nc4ccc(F)cc4)CC3)cc2F)ccn1)C1CC1 [Altiratinib] (10 µM)
0: all assays above

CC(=O)N1CCN(c2cc(-c3cc(C(F)(F)F)c4c(N)ncnn34)ccc2C#N)C(=O)C1(C)C (10 µM)
0: all assays above

COc1ccc([C@@H]2CC(=O)c3c(O)cc(O)cc3O2)cc1O [Hesperetin] (10 µM)
0: all assays above

CCOc1ccc(C(=O)Nc2ncc([N+](=O)[O-])s2)cc1 (10 µM)
0: all assays above

O=C(Nc1ccc(F)cc1F)[C@H](NC(=S)Nc1cc(C(F)(F)F)cc(C(F)(F)F)c1)c1ccccc1 (2.5 µM)
0: all assays above

C#CCN(C)C(=O)CCNc1nc(N2CCN(C(=O)C=C)CC2)c2cc(Cl)c(-c3c(O)cccc3F)c(F)c2n1 [ARS-1323-alkyne] (2.5 µM)
0: all assays above

Nc1cc(Nc2ccc(S(N)(=O)=O)cc2)ncn1 (10 µM)
1: PDPK1
0: all other assays above

Cc1ccc(S(=O)(=O)/C=C/C#N)cc1 (10 µM)
0: all assays above

Grouped by structure, the compounds so far with a CF3 group
CNc1nc(Nc2cnn(C3CCN(C4COC4)CC3F)c2Cl)ncc1C(F)(F)F (stereo not given) (10 µM)
0: all assays above

CS(=O)(=O)c1ccc(-c2noc(C(F)(F)F)c2-c2ccccc2)cc1 (10 µM)
0: all assays above

CC(=O)N1CCN(c2cc(-c3cc(C(F)(F)F)c4c(N)ncnn34)ccc2C#N)C(=O)C1(C)C (10 µM)
0: all assays above

O=C(Nc1ccc(F)cc1F)[C@H](NC(=S)Nc1cc(C(F)(F)F)cc(C(F)(F)F)c1)c1ccccc1 (2.5 µM)
0: all assays above

(cont.)

NCc1ccc(Nc2ncc(F)c(Nc3ccccc3)n2)cc1 (10 µM)
0: all assays above

Cc1cc(Nc2cc(Cl)nc(Oc3ccc([N+](=O)[O-])cc3)n2)n[nH]1 [Autophinib] (2.5 µM)
0: all assays above

O=C(NC(NC(=S)Nc1ccc(F)c([N+](=O)[O-])c1)C(Cl)(Cl)Cl)C(c1ccccc1)c1ccccc1 (stereo not given) (10 µM)
0: all assays above
